{"sequences": {"note": "The chains behind the UniProt entries cited, without tags or fusion partners.", "UniProt Q9NRY5": "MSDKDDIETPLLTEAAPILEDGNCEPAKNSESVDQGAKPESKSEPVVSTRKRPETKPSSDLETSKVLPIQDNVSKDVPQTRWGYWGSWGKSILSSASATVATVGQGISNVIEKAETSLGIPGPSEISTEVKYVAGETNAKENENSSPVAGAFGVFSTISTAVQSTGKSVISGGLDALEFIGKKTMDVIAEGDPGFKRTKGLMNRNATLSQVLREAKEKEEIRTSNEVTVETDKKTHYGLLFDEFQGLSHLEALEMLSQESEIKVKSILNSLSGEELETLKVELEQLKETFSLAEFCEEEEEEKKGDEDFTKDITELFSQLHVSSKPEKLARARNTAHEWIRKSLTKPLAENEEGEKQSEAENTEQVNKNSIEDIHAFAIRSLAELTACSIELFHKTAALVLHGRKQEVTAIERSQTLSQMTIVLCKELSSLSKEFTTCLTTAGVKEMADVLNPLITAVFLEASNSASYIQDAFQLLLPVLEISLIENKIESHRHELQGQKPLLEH", "UniProt Q9VQ93": "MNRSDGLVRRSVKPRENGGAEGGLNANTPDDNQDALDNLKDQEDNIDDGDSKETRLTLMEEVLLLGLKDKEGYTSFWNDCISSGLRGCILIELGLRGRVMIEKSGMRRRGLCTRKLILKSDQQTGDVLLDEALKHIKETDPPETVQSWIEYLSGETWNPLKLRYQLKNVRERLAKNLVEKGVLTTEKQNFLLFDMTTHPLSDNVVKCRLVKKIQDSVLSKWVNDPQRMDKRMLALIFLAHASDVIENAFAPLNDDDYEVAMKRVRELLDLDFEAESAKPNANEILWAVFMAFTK", "UniProt Q10471": "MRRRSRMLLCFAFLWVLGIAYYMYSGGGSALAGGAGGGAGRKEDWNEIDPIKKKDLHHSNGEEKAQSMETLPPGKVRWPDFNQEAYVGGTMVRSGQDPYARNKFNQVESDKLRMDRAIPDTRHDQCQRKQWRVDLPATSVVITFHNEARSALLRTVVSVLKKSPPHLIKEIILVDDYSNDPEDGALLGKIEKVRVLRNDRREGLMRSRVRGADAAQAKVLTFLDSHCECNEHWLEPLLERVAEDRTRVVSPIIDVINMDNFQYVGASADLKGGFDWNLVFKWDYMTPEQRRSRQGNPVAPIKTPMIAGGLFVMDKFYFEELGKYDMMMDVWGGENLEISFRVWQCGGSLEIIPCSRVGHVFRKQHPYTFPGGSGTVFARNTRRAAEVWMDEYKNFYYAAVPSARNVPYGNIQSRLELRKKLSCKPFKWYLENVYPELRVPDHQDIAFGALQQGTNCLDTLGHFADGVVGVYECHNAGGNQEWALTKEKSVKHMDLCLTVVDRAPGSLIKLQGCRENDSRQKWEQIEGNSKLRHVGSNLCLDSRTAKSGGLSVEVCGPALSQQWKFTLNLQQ", "UniProt P61019": "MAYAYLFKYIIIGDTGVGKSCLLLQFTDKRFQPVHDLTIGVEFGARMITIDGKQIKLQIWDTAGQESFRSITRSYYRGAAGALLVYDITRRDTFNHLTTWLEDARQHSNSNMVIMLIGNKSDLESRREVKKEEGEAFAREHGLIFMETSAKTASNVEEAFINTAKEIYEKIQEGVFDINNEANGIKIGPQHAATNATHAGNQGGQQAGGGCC", "UniProt Q8WUD1": "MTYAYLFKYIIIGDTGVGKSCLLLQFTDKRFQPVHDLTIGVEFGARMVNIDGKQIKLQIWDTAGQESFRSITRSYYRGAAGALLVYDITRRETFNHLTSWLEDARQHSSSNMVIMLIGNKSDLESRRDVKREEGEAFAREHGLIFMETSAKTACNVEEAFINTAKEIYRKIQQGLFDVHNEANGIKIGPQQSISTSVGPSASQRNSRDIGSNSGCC"}, "source": "paper PMC11441981", "molecules": {"B1": {"name": "Vap33 (protein, UniProt Q9W4N8 1-269)", "chain": "MSKSLFDLPLTIEPEHELRFVGPFTRPVVTIMTLRNNSALPLVFKIKTTAPKRYCVRPNIGKIIPFRSTQVEICLQPFVYDQQEKNKHKFMVQSVLAPMDADLSDLNKLWKDLEPEQLMDAKLKCVFEMPTAEANAENTSGGGAVGGGTGAAGGGSAGANTSSASAEALESKPKLSSEDKFKPSNLLETSESLDLLSGEIKALRECNIELRRENLHLKDQITRFRSSPAVKQVNEPYAPVLAEKQIPVFYIAVAIAAAIVSLLLGKFFL"}, "B2": {"name": "CG18661 (Drosophila ortholog of METTL26/C16orf13) (protein, UniProt Q9VLF6 1-222)", "chain": "MSLTKRLLHIHPRCSFSKRSHPSADRNSQPISEALLSQVDKTTENLQLLEIASGSGQHAGFLAPLLPNITFQPTEYERNQFGSIAAYAGDCPTRNIRPPFHVDITRDPGDWEAPPAPASYDYMFNSNMMHISPWSCSIGLFRAAGQLLKKGGRMFTYGPYAQDGILVPQSNVDFDRSLRQRDASWGVRDIKDLKVLAAENGLQLEKLVKMPSNNKFLTWLKL"}}, "key": {"[1]": {"molecular_target": "GST-tagged FAM114A2 (produced in bacteria) (human) (UniProt Q9NRY5)", "assay": "affinity purification with mass spectrometry; GST-tagged FAM114A1 or FAM114A2 from bacteria on glutathione-Sepharose beads; precleared HEK293T cell lysate, 4°C 1 h, lysis buffer 50 mM Tris-HCl pH 7.4, 150 mM NaCl, 1 mM EDTA, 0.5% Triton X-100; eluted with 1.5 M NaCl; compared with GST alone, three biological replicates; only the target …"}, "[2]": {"molecular_target": "GST-tagged FAM114A1 (produced in bacteria) (human) (UniProt Q8IWE2)", "assay": "affinity purification with mass spectrometry; GST-tagged FAM114A1 or FAM114A2 from bacteria on glutathione-Sepharose beads; precleared HEK293T cell lysate, 4°C 1 h, lysis buffer 50 mM Tris-HCl pH 7.4, 150 mM NaCl, 1 mM EDTA, 0.5% Triton X-100; eluted with 1.5 M NaCl; compared with GST alone, three biological replicates; only the target …"}, "[3]": {"molecular_target": "GST-tagged CG9590 (Drosophila FAM114A) (Drosophila) (UniProt Q9VF39)", "assay": "affinity purification with mass spectrometry; GST fusions (CG9590, CG9590 W24A W27A, Sauron) from bacteria on glutathione-Sepharose beads; precleared S2 cell lysate, 4°C 1 h, lysis buffer 50 mM Tris-HCl pH 7.4, 150 mM NaCl, 1 mM EDTA, 0.5% Triton X-100; eluted with 1.5 M NaCl; compared with GST alone or with each other, three biological replicates; only the target purified"}, "[4]": {"molecular_target": "GST-tagged Sauron (Drosophila GOLPH3) (Drosophila) (UniProt Q9VQ93)", "assay": "affinity purification with mass spectrometry; GST fusions (CG9590, CG9590 W24A W27A, Sauron) from bacteria on glutathione-Sepharose beads; precleared S2 cell lysate, 4°C 1 h, lysis buffer 50 mM Tris-HCl pH 7.4, 150 mM NaCl, 1 mM EDTA, 0.5% Triton X-100; eluted with 1.5 M NaCl; compared with GST alone or with each other, three biological replicates; only the target purified"}}, "note": "These are yes or no findings as the source states them, for the method shown. In cells and extracts the contact can be indirect. Here binding means that the protein was enriched with, or labelled near, the bait; the list need not be complete. For some of these results: No binding means not detected with the bait."}
{"molecule": "GALNT2 (endogenous) (from UniProt Q10471 1-571) (enzyme)", "values": [{"measurement": "binding", "setting": "[1]", "value": "binds"}]}
{"molecule": "METTL26 (C16orf13) (from UniProt Q96S19 1-204)", "values": [{"measurement": "binding", "setting": "[1]", "value": "binds"}, {"measurement": "binding", "setting": "[2]", "value": "binds"}]}
{"molecule": "Rab2A (from UniProt P61019 1-212)", "values": [{"measurement": "binding", "setting": "[1]", "value": "binds"}, {"measurement": "binding", "setting": "[2]", "value": "binds"}]}
{"molecule": "Rab2B (from UniProt Q8WUD1 1-216)", "values": [{"measurement": "binding", "setting": "[1]", "value": "binds"}, {"measurement": "binding", "setting": "[2]", "value": "binds"}]}
{"molecule": "B1", "values": [{"measurement": "binding", "setting": "[3]", "value": "binds"}]}
{"molecule": "B2", "values": [{"measurement": "binding", "setting": "[4]", "value": "no binding"}, {"measurement": "binding", "setting": "[3]", "value": "no binding"}]}
